From article PMC11554844, “BEACH domain proteins function as cargo-sorting adaptors in secretory and endocytic pathways” (The Journal of Cell Biology, 2024)
No constants are given. Whether binding was seen depends on the method and setting. In cells and extracts the contact can be indirect. Some entries that bind do so weakly or less than the wild type. For part of these data: Where a sequence is shown, tags or fusion partners need not be part of it. Blank lines part the entries; values can stand above or below the substance they belong to.

The chains behind the UniProt entries cited, without tags or fusion partners. Where a name states a change or a piece, a line headed by the entry shows the natural chain unless it says otherwise. Residues count along the entry.
UniProt P16410, residues 187-223: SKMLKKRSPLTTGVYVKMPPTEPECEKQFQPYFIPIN
UniProt Q15375, residues 579-998: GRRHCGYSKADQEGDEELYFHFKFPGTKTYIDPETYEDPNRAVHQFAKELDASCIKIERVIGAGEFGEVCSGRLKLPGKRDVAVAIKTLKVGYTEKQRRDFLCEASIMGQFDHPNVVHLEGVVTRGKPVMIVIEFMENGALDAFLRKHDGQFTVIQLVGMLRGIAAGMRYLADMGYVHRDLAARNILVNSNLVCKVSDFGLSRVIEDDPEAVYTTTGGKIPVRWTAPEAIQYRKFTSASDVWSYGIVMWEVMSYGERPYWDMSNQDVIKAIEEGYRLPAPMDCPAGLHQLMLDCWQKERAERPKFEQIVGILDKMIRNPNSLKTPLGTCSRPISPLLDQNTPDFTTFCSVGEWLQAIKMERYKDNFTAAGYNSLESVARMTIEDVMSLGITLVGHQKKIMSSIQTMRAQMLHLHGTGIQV
UniProt P22455, residues 388-802: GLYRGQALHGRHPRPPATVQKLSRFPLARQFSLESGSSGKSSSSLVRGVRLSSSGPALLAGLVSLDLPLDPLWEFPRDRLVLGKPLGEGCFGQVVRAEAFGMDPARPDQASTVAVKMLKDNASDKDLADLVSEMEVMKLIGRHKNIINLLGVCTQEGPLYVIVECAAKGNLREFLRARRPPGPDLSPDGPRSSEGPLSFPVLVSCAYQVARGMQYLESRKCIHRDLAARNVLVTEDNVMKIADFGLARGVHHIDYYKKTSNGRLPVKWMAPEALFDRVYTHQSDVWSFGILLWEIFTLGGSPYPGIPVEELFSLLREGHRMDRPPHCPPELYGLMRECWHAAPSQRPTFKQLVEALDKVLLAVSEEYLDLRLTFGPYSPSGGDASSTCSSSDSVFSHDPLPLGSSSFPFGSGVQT
UniProt P78504, residues 1093-1218: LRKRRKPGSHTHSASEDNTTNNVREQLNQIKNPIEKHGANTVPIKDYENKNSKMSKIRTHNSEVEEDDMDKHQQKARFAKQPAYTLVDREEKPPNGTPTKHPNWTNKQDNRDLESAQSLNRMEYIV

Assays:
Assay in all cases: pull-down; GST fusion immobilised on glutathione-sepharose beads, incubated overnight at 4°C with 500 μl lysate of HeLa cells expressing a 3xFlag-EGFP-BDCP; washed six times in 50 mM Tris-HCl pH 7.4, 150 mM NaCl, 1% Triton X-100; bound protein detected with anti-flag antibody; only the target purified
[1] = target: GST-CTLA4 (201–215) (human) (UniProt P16410)
[2] = target: GST-CTLA4(187–223) (human) (UniProt P16410)
[3] = target: GST-CTLA4(201–215)M204A (human) (UniProt P16410)
[4] = target: GST-CTLA4(201–215)Y201A (human) (UniProt P16410)
[5] = target: T1, GST-EFNB2(251–333) (human) (UniProt P52799)
T1 sequence: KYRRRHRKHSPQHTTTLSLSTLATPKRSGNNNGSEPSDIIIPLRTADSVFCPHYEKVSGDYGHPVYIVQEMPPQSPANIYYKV

[6] = target: GST-EPHA7(579–998) (human) (UniProt Q15375)
[7] = target: GST-FGFR4(388–802) (human) (UniProt P22455)
[8] = target: T2, GST-FLRT2(563–660) (human) (UniProt O43155)
T2 sequence: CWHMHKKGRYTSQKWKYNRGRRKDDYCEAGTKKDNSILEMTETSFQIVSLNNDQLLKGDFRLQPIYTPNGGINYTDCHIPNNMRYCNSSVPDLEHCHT

[9] = target: GST-JAG1(1093–1218) (human) (UniProt P78504)
[10] = target: T3, GST-ROBO2(883–1378) (human) (UniProt Q9HCK4)
T3 sequence: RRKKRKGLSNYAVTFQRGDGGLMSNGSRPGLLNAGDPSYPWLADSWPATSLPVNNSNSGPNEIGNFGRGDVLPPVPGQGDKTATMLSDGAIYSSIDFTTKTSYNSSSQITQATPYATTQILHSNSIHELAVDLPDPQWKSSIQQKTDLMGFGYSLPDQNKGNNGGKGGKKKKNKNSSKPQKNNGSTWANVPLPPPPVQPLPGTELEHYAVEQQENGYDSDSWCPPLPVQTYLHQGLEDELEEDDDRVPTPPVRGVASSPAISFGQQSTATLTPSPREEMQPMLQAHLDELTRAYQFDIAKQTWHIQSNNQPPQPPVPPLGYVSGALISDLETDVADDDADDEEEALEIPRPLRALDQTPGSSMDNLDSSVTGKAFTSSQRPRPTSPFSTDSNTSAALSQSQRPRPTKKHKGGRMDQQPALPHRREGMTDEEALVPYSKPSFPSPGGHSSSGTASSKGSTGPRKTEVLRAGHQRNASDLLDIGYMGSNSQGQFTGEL

[11] = target: T4, GST-SDK1(2031–2213) (human) (UniProt Q7Z5N4)
T4 sequence: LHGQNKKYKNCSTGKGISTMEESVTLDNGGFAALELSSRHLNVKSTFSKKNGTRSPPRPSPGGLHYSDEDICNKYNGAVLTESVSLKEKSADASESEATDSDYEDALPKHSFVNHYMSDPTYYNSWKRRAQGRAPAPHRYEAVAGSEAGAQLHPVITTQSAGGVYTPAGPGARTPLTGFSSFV

[12] = target: T5, GST-TGFBR3(810–851) (human) (UniProt Q03167)
T5 sequence: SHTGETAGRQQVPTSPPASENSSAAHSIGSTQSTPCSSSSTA

binding [1]: binds
binding [2]: binds
binding [3]: binds
binding [4]: binds
binding [5]: binds
binding [6]: binds
binding [7]: binds
binding [8]: binds
binding [9]: binds
binding [10]: binds
binding [11]: binds
binding [12]: binds
Substance: 3xFlag-EGFP-ALFY (from UniProt Q8IZQ1-1 1-3526)

binding [1]: binds
Substance: 3xFlag-EGFP-LRBA (from UniProt P50851-1 1-2863)

binding [1]: binds
Substance: 3xFlag-EGFP-NBEAL2 (from UniProt Q6ZNJ1-1 1-2754)

binding [1]: binds
Substance: 3xFlag-EGFP-LYST (from UniProt Q99698-1 1-3801)
